For this test, the target named is Shuffle 6. Briefly: flow cytometry on transfected HEK293-T17 cells, 1 µg/mL antibody, APC-labeled AffiniPure F(ab')2 fragment as secondary. A general note: A flow cytometer gives signals particle by particle.

Here are results for one molecule from patent US20210369842A1 (Genmab, published 2021).

These are yes or no findings as the source states them, for the method shown. Some results given as binding are weak or reduced against the parent protein; the word gives no strength.

B1: CD137-009 (chimeric rabbit/human CD137 antibody) (antibody, V domains shown)
VH: QSLEESGGRLVTPGTPLTLTCTVSGFSLNDYWMSWVRQAPGKGLEWIGYIDVGGSLYYASWAKGRFTISRTSTTVDLKMTSLTTEDTATYFCARGGLTYGFDLWGPGTLVTVSS
VL: DIVMTQTPASVSEPVGGTVTINCQASEDISSYLAWYQQKPGQRPKRLIYGASDLASGVPSRFSASGSGTEYALTISDLESADAATYYCHYYATISGLGVAFGGGTEVVVK
notes: also called antibody CD137-009; rabbit anti-CD137-009
For B1, the binding entry is “binds”.
